Assay results: paper PMC7067379, “Mapping the S1 and S1’ subsites of cysteine proteases with new dipeptidyl nitrile inhibitors as trypanocidal agents” (PLoS Neglected Tropical Diseases, 2020)

Each compound was assayed on T. cruzi Tulahuen LacZ strain, intracellular amastigote forms (assay: In vitro trypanocidal activity on intracellular amastigote forms (Tulahuen strain)). Settings: S1 Table; ratio CC50 / EC50.
Assay type: cell-based, Trypanosoma cruzi
Method: Cells were evaluated in 96-well plates. Cells from the LLCMK2 lineage were plated at a concentration of 5x10^4 cells mL^-1. Trypomastigote forms of the Tulahuen LacZ strain were added at a concentration of 5×10^5 parasites mL^-1 and placed in the incubator at 37°C with 5% CO2 for 24 h. After the incubation period, the trypomastigote forms present were removed by successive washes with PBS, remaining only as intracellular amastigote forms. Compounds were added at different concentrations (1.95 μM to 250 μM serial dilutions) and incubated for 72 h. At the end of this period, the substrate CPRG (chlorophenol red β-D-galactopyranoside, 400 μM in 0.3% Triton X-100, pH 7.4) was added. […] Benznidazole was used as a positive control in the same concentrations as the substances, and DMSO as a negative control. Compounds were solubilized in DMSO. The selectivity index (SI) was calculated using the formula: […]. All statistical analyses were done with the program GraphPad Prism v.5.
Compound `Cn1nc(C(C)(C)C)cc1C(=O)N[C@@H](Cc1ccccc1)C(=O)N[C@H](C#N)Cc1ccccc1` [Compound 50, 3-(tert-Butyl)-N-((S)-1-(((S)-1-cyano-2-phenylethyl)amino)-1-oxo-3-phenylpropan-2-yl)-1-methyl-1H-pyrazole-5-carboxamide] has an SI of 1.3.
For `Cn1nc(C(C)(C)C)cc1C(=O)N[C@@H](Cc1ccccc1)C(=O)N[C@@H](C#N)Cc1ccccc1` [Compound 51, 3-(tert-Butyl)-N-((S)-1-(((R)-1-cyano-2-phenylethyl)amino)-1-oxo-3-phenylpropan-2-yl)-1-methyl-1H-pyrazole-5-carboxamide], the SI was 4.9.
`CC(C)CC(C#N)NC(=O)[C@H](Cc1ccccc1)NC(=O)c1cc(C(C)(C)C)nn1C` (stereo in doubt) [Compound 53, 3-(tert-Butyl)-N-((S)-1-(((S)-1-cyano-3-methylbutyl)amino)-1-oxo-3-phenylpropan-2-yl)-1-methyl-1H-pyrazole-5-carboxamide] was tested, and the SI was 5.1.
`C[C@H](OCc1ccccc1)[C@H](C#N)NC(=O)[C@H](Cc1ccccc1)NC(=O)c1cc(C(C)(C)C)nn1C` [Compound 57, N-((S)-1-(((1S,2S)-2-(Benzyloxy)-1-cyanopropyl)amino)-1-oxo-3-phenylpropan-2-yl)-3-(tert-butyl)-1-methyl-1H-pyrazole-5-carboxamide] gave an SI of 32.5.
For `C[C@@H](OCc1ccccc1)[C@@H](C#N)NC(=O)[C@H](Cc1cccc(Cl)c1)NC(=O)c1cc(C(C)(C)C)nn1C` [Compound 60, N-((S)-1-(((1R,2R)-2-(Benzyloxy)-1-cyanopropyl)amino)-3-(3-chlorophenyl)-1-oxopropan-2-yl)-3-(tert-butyl)-1-methyl-1H-pyrazole-5-carboxamide], the SI was 25.3.
In the case of `CC(C)C[C@@H](C#N)NC(=O)[C@H](Cc1ccccc1)NC(=O)c1cc(C(C)(C)C)nn1C` [Compound 52, 3-(tert-Butyl)-N-((S)-1-(((S)-1-cyano-3-methylbutyl)amino)-1-oxo-3-phenylpropan-2-yl)-1-methyl-1H-pyrazole-5-carboxamide], the SI is reported as 23.9.
`Cn1nc(C(C)(C)C)cc1C(=O)N[C@@H](Cc1ccccc1)C(=O)N[C@H](C#N)Cc1cccc(Cl)c1` [Compound 54, 3-(tert-Butyl)-N-((S)-1-(((S)-2-(3-chlorophenyl)-1-cyanoethyl)amino)-1-oxo-3-phenylpropan-2-yl)-1-methyl-1H-pyrazole-5-carboxamide] showed an SI of 2.8.
